The match of structure and compound is tentative.

Amino acid sequences for entries named in this document (tags omitted).
UniProt Q99685, whole entry: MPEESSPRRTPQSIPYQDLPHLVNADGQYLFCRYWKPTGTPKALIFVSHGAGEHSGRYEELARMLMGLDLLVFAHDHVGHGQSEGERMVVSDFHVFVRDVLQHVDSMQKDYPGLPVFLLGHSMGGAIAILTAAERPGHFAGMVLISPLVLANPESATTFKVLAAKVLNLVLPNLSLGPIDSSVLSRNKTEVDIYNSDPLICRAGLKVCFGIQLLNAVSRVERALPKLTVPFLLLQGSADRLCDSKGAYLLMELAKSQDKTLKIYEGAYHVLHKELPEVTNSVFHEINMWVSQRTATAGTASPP
UniProt Q8R431, whole entry: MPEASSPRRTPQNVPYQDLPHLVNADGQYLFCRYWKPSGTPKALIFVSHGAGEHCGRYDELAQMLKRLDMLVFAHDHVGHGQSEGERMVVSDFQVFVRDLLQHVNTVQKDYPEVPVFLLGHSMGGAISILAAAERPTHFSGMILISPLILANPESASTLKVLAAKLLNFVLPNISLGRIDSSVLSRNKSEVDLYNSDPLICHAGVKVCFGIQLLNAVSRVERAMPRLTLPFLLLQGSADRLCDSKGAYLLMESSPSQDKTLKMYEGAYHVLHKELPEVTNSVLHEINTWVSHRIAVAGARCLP

Usually IC50 stands for the concentration needed to halve the response being measured. A high value points to weaker potency in that assay.

Test [1] deals with purified wild type MGL (wt-MGLL 6H-11-313) (Homo sapiens, UniProt Q99685).
Test [2] addresses MGL in rat brain homogenate (Rattus norvegicus, UniProt Q8R431). Briefly: 2-AG accumulation assay in rat brain homogenate. The test is classed as biochemical. The conditions noted are these: compound 1 μM, 2-AG accumulation as percent of vehicle.

For the molecule `O=C(c1ccc(Cc2ccc(C(F)(F)F)cc2)cc1)N1CCN(C2CN(C(=O)c3cscn3)C2)CC1`, the half-maximal inhibitory concentration (IC50) in test [1] was less than 5 nM. The “Rat Brain 2AG % VehCntrl (%) @1 μM” value in test [2] amounted to 458%.

The record behind these values is patent US8691805B2, “Azetidinyl diamides as monoacylglycerol lipase inhibitors” (Janssen Pharmaceutica NV, priority 2009, dated 2014).
